The target in experiment [1] is Mouse GDF15 Fc (mouse) (UniProt Q9Z0J7). The experiment can be described thus: BLI Octet; antigen on sensor, 100 nM Fab (monovalent). A general note: Biolayer interferometry detects binding as a change in optical thickness at a sensor tip.
In experiment [2] the target is GDNF (UniProt P39905). The experiment can be described thus: BLI Octet; IgG on sensor, 100 nM antigen (avid).

Chains of the proteins cited; added tags and fusions are not shown. Residues count along the entry.
UniProt Q9Z0J7, residues 189-303: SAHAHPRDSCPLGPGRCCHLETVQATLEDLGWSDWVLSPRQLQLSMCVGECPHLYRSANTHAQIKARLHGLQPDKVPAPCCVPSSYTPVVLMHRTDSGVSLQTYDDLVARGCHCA
UniProt P39905, residues 78-211: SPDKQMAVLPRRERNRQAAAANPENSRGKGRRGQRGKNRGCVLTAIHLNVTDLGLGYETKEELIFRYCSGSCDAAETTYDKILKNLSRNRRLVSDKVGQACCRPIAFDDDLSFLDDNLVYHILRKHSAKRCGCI

Substitutions are numbered along the chain they refer to. These are yes or no findings as the source states them, for the method shown. Some results given as binding are weak or reduced against the parent protein; the word gives no strength.

B1: GDF15 antibody agent Clone J, Fab (Fab, V domains shown)
VH: QVQLVQSGAEVKKPGASVKVSCKASGYTFTSYGINWVRQAPGQGLEWMGWIDAYSGSTNYAQKLQGRVTMTTDTSTSTAYMELRSLRSDDTAVYYCARGPGQYADVDVWGQGTMVTVSS
VL: DIQMTQSPSSVSASVGDRVTITCRASQGISSWLAWYQQKPGKAPKLLIYAASSLQSGVPSRFSGSGSGTDFTLTISSLQPEDFATYYCQQANSFPITFGGGTKVEIK
Take B1: in experiment [1], the binding result was “binds”.

B2: GDF15 antibody agent Clone J, IgG (antibody, V domains shown)
VH: B1 VH
VL: DIQMTQSPSSVSASVGDRVTITCRASQGISSWLAWYQQKPGKAPKLLIYAASSLQSGVPSRFSGSGSGTDFTLTISSLQPEDFATYYCQQANSFPITFGGGTKVEIKR
Regarding B2, the binding entry in experiment [2] is reported as “binds”.

B3: GDF15 antibody agent Clone P, Fab (Fab, V domains shown)
VH: QVQLVQSGAEVKKPGATVKVSCKASGYTFDSYGIHWVRQAPGQGLEWMGWITAYSGDTVYAQKLQGRVTMTTDTSTSTAYMELRSLRSDDTAVYYCARESGQTSSALGPWGQGTLVTVSS
VL: B1 VL with S31R, A91G, N92A, I96L
On to B3, for which, in experiment [1], the binding result was “binds”.

B4: GDF15 antibody agent Clone P, IgG (antibody, V domains shown)
VH: B3 VH
VL: B2 VL with S31R, A91G, N92A, I96L
Take B4: the binding result in experiment [2] is “binds”.

For the origin of these results see patent US20250382359A1.
